Test results reported in PubChem BioAssay AID1487 (National Center for Advancing Translational Sciences (NCATS), 2009).
The list shows a part of the results. The main result of the screen is listed elsewhere. These columns were measured beside it and carry no call. Compounds called inactive in the main read-out are mostly missing here. Potencies come from curve fits of mixed quality, noted in brackets.

Test: qHTS Assay for Modulators of Lamin A Splicing
Details: HeLa LMNA splicing GFP/RFP minigene ratio, 48 h
Outline: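 Read-out is the ratio of GFP to DsRed2 object intensity, acquired by 488 nm laser-scanning cytometry on HeLa lamin A-EGFP minigene reporter cells. Compound incubation 48 hrs at 37 °C in Opti-MEM with 2% FBS; DMSO 0.5% final.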

[1] = measured here: GFP splicing reporter channel
[2] = measured here: RFP viability control channel

Row | Structure (SMILES) | AC50 [1] | AC50 [2]
1 | CCOC(=O)c1c(NC(=O)CC(C)C)sc(C(C)=O)c1C | 20 µM [rising, single point] | 15.8 µM [rising, single point]
2 | C=CCSC(=C(C#N)C#N)c1cc2c([nH]1)CCCC2 | 10 µM [falling, single point] | 35.5 µM [falling, single point]
3 | O=C1c2ccccc2NC(c2ccc(Cl)cc2Cl)N1O (stereo unspecified) | 22.4 µM [falling, single point] | –
4 | CCC(Sc1nc2cc3c(cc2c(=O)n1CCCC(=O)NCc1ccc(OC)cc1)OCO3)C(=O)NCCCOC (stereo unspecified) | 3.98 µM [falling, single point] | 3.16 µM [falling, single point]
5 | CC(C)(C)N(Cc1ccccc1)C(=O)COC(=O)Cn1cnc2ccccc2c1=O | – | 2.51 µM [falling, full curve]
6 | COc1ccc(-c2nnc(SCC(=O)c3ccc[nH]3)n2-c2ccccc2)cc1 | 0.631 µM [rising, partial curve, poor fit] | 35.5 µM [rising, single point]
7 | COc1cccc(C(=O)CSc2nnc(COc3cccc4cccnc34)o2)c1 | – | 1.58 µM [rising, full curve, poor fit]
8 | O=c1[nH]nc(Sc2ncnc3sccc23)n1CCc1ccccc1 | – | 10 µM [rising, partial curve]
9 | CN1/C(=C\C(=S)Nc2ccccc2)C(C)(C)c2ccccc21 | 6.31 µM [falling, partial curve] | 0.891 µM [falling, full curve]
10 | Cc1ccc2nc(N3CCC(C(=O)NCc4ccc(F)cc4)CC3)[nH]c2c1 | – | 1.12 µM [rising, full curve, poor fit]
11 | CCOC(=O)C(=Cc1cn(C)c2ccc(S(=O)(=O)N(C)C)cc12)C(=O)OCC | 1.12 µM [falling, partial curve] | 0.794 µM [falling, single point]
12 | CSc1nc(C2CC2)cc(-c2cccs2)c1C#N | 35.5 µM [falling, single point] | 35.5 µM [falling, single point]
13 | CN(C)/C=N/c1cc(=O)n(C)c(=O)n1Cc1ccccc1 | – | 11.2 µM [rising, partial curve, poor fit]
14 | CCN(CC)C(=O)Cn1cc(S(=O)(=O)CC(=O)NCc2ccc3c(c2)OCO3)c2ccccc21 | 0.0316 µM [rising, full curve, poor fit] | –
15 | COc1cc(OC)cc(-c2nnc(SCC(=O)N3CCCc4ccccc43)o2)c1 | 35.5 µM [rising, single point] | 20 µM [rising, single point]
16 | Cc1ccc(CCNC(=O)c2ccc(CS(=O)(=O)Cc3cccc(C)c3)o2)cc1 | 0.0112 µM [falling, full curve, poor fit] | 0.02 µM [falling, full curve, poor fit]
17 | COc1ccc2nc(C)cc(SCC(=O)N/N=C/c3ccc(O)cc3O)c2c1 | – | 12.6 µM [rising, partial curve]
18 | CC(C)(C)C(=O)Nc1cccc(OC(F)(F)C(F)Cl)c1 (stereo unspecified) | – | 0.00316 µM [falling, full curve, poor fit]
19 | COC(=O)c1c(NC(=O)CSc2ncnc3c2cnn3-c2ccccc2Cl)sc2c1CCCC2 | – | 12.6 µM [rising, partial curve]
20 | CN(C)c1nc(N2CCOCC2)nc(N(c2ccccc2)c2ccccc2)n1 | – | 35.5 µM [rising, single point]
21 | O=S(=O)(O)C1CCNCC1 | 11.2 µM [rising, partial curve] | 7.08 µM [rising, full curve, poor fit]
22 | COc1ccc2c(c1)C(SCC(=O)NCCc1ccc(Cl)cc1)CC(C)(C)O2 (stereo unspecified) | – | 12.6 µM [rising, single point]
23 | O=c1c2cn[nH]c2nc(SCc2ccccc2F)n1-c1ccc(Br)cc1 | 0.0794 µM [rising, full curve, poor fit] | –
24 | CC(OC(=O)c1oc2ccccc2c1CSC1CCCCC1)C(=O)NC(N)=O (stereo unspecified) | 14.1 µM [falling, partial curve, poor fit] | 17.8 µM [falling, single point]
25 | NC(=O)c1ccsc1NC(=O)COC(=O)Cc1cccc2ccccc12 | – | 11.2 µM [rising, partial curve]
26 | COc1ccc(NS(=O)(=O)c2cccc(Cl)c2Cl)cc1S(=O)(=O)N1CCCCC1 | – | 5.62 µM [rising, partial curve]
27 | CC(C)NC(=O)COC(=O)C1CSC2(c3ccc(Br)cc3)CCC(=O)N12 (stereo unspecified) | 0.355 µM [rising, full curve] | –
28 | Oc1c(C(Nc2nc3ccccc3s2)c2ccco2)ccc2cccnc12 (stereo unspecified) | 2.82 µM [rising, single point] | 5.62 µM [rising, single point]

Quoted from the listing.
Value of `COc1ccc2nc(C)cc(SCC(=O)N/N=C/c3ccc(O)cc3O)c2c1` under AC50 [2]: 12.6 µM [rising, partial curve]
Value of `C=CCSC(=C(C#N)C#N)c1cc2c([nH]1)CCCC2` under AC50 [2]: 35.5 µM [falling, single point]
Value of `O=C1c2ccccc2NC(c2ccc(Cl)cc2Cl)N1O` (stereo unspecified) under AC50 [1]: 22.4 µM [falling, single point]
Value of `CCOC(=O)C(=Cc1cn(C)c2ccc(S(=O)(=O)N(C)C)cc12)C(=O)OCC` under AC50 [2]: 0.794 µM [falling, single point]

The listing continues:

Row | Structure (SMILES) | AC50 [1] | AC50 [2]
29 | CCN(CC)c1ccc(C(=O)OCc2cc(=O)oc3cc(O)ccc23)cc1 | 20 µM [falling, partial curve, poor fit] | 17.8 µM [falling, partial curve]
30 | Cc1cc(C)n(CCN(C)C(=O)CCc2nnc(-c3ccc4c(c3)OCO4)o2)n1 | 0.00355 µM [falling, full curve, poor fit] | –
31 | S=c1[nH]nc(CSc2nc3ccccc3s2)n1C1CCCCC1 | 8.91 µM [rising, single point] | 35.5 µM [rising, single point]
32 | C=CCn1c(SCC(=O)Nc2cccc(C)c2)nnc1-c1cnccn1 | 31.6 µM [rising, single point] | –
33 | COc1ccc(NC(=O)c2cc(S(=O)(=O)NCCC3=CCCCC3)ccc2F)cc1 | – | 15.8 µM [rising, single point]
34 | O=C(NCCc1csc(-c2ccc(Cl)cc2)n1)c1cccs1 | 7.08 µM [falling, partial curve, poor fit] | 22.4 µM [falling, partial curve, poor fit]
35 | CC(=O)c1c(C)[nH]c(C(=O)OCC(=O)N2CCN(S(=O)(=O)c3ccc(C)cc3C)CC2)c1C | – | 31.6 µM [rising, single point]
36 | COC(=O)CCCCCN1C(=O)NC(c2ccc(-c3ccccc3)cc2)C(C(=O)OCc2ccccc2)=C1C (stereo unspecified) | – | 25.1 µM [rising, single point]
37 | CCc1cc2c(=O)n(-c3ccc(C)cc3)cnc2s1 | – | 17.8 µM [rising, partial curve]
38 | Nc1[nH]ncc1-c1ccccc1 | – | 0.0112 µM [falling, full curve, poor fit]
39 | COc1ccc(NC(=O)CCNS(=O)(=O)c2cccc3nsnc23)cc1 | 0.00447 µM [falling, full curve, poor fit] | –
40 | CCn1c(SCC(=O)c2ccccc2)nnc1-c1cccnc1 | 2.82 µM [rising, single point] | –
41 | O=C(Nc1cccc(Br)c1)N1CCC(CN2CCCCC2)CC1 | – | 5.62 µM [falling, partial curve, poor fit]
42 | O=C(NCC(c1cccs1)N1CCOCC1)c1ccccc1NS(=O)(=O)c1ccc(Cl)cc1 (stereo unspecified) | – | 0.01 µM [rising, full curve, poor fit]
43 | CC(O)c1cccc(NC(=O)CCCc2ccccc2)c1 (stereo unspecified) | 7.08 µM [falling, full curve] | 0.224 µM [falling, full curve, poor fit]
44 | CC1CCCCC1NS(=O)(=O)c1ccc(S(=O)(=O)N2CCCC2)cc1 (stereo unspecified) | 11.2 µM [rising, single point] | 12.6 µM [rising, single point]
45 | COc1ccc(S(=O)(=O)N2CCCC2c2cccs2)cc1 (stereo unspecified) | 25.1 µM [falling, partial curve, poor fit] | 0.00501 µM [falling, full curve, poor fit]
46 | CC(C)(C)c1ccc(OCc2nc(-c3ccccn3)no2)c(Br)c1 | 3.55 µM [rising, partial curve] | 17.8 µM [rising, partial curve, poor fit]
47 | CCCCOC(=O)Cn1cnc2ccc(Br)cc2c1=O | – | 4.47 µM [falling, partial curve, poor fit]
48 | COc1ccccc1NS(=O)(=O)c1ccc(NN=C2CCCCC2)c([N+](=O)[O-])c1 | 12.6 µM [rising, partial curve] | 22.4 µM [rising, single point]
49 | CC1C(=O)CC(c2ccc([N+](=O)[O-])cc2)NC1c1ccc([N+](=O)[O-])cc1 (stereo unspecified) | – | 0.0398 µM [rising, full curve, poor fit]
50 | COc1ccc(NC(=O)Cn2nnc(-c3ccccc3NS(=O)(=O)c3ccc(OC)cc3)n2)cc1 | – | 3.98 µM [rising, single point]
51 | CC(C)c1nc(SCC(=O)Nc2ccc(N3CCOCC3)cc2)c2ccccc2n1 | – | 11.2 µM [rising, partial curve, poor fit]
52 | CCOc1ccc(C(=O)c2nc3c(n2O)CCCCC3)cc1 | 31.6 µM [falling, single point] | 17.8 µM [falling, single point]
53 | O=c1c2ccccc2nc(-c2ccoc2)n1CCc1ccccc1 | – | 28.2 µM [rising, single point]
54 | COc1ccc(/C=N/NC(=O)c2ccco2)cc1Cn1nc(C)cc1C | – | 35.5 µM [rising, single point]
55 | Cc1cccc(C)c1OCC(=O)Nc1nc(-c2ccc(Br)cc2)ns1 | – | 25.1 µM [rising, single point]
